According to the supplement of paper PMC12889115:
The list shows a part of the results. These are raw signals, not scaled to a control.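 Primary screen: polymyxin B was added at a level permeabilizing Salmonella outer membranes while sparing inner membranes. DMSO wells, both with and without polymyxin B, established maximum growth. Plate-to-plate variation meant each plate was ranked on its own, and the lowest-OD600 compounds were selected as hits.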

Test system: Salmonella enterica serovar Typhimurium SL1344
Assay: bacterial growth OD600 after 18 h with compound and polymyxin B; higher = more bacterial growth (less inhibition)
Conditions: 50 µM, Mueller-Hinton broth

Compound	bacterial growth OD600 (polymyxin B 1 µg/mL)	bacterial growth OD600 (polymyxin B 0.75 µg/mL)
CCOC(=O)C1(Cc2ccccc2F)CCCN(C(=O)c2cccc3nccnc23)C1 (configuration not stated)	0.859	–
COc1cccc(Cc2cc(C(=O)NCc3cc(OC)ccc3OC)on2)c1	–	0.733
c1ccc2c(c1)CC(NCc1cccn1-c1nccs1)CO2 (configuration not stated)	1.03	–
COC(=O)c1ccc(CNC(C)c2cnn(-c3ccc(OC)cc3)c2C)cc1 (configuration not stated)	1.05	–
Cc1oc(-c2ccccc2NC(=O)c2ccccc2)nc1CNC(=O)c1cc(-c2ccccc2)n[nH]1	–	0.791
CCOC(=O)C1(Cc2ccccc2)CCCN(Cc2c(C)n(C)n(-c3ccccc3)c2=O)C1 (configuration not stated)	0.82	–
CCn1ccnc1CN1CCC(Oc2cc(C(=O)NC3CC3)ccc2OC)CC1	1.26	–
O=C(NCCc1cscn1)C1(N2CCCCC2)Cc2ccccc2C1	–	0.582
C[C@@H]1CN(Cc2ccc3c(c2)CN(Cc2nc4ccccc4n2C)CCO3)C[C@H](C)O1	–	0.816
Cc1ccc(-c2n[nH]cc2CN(C)Cc2ccc3nonc3c2)cc1C	0.696	–
CCn1cc(CN2CCCC2C(=O)Nc2ccc(-c3cscn3)cc2)cn1 (configuration not stated)	–	0.85
CCn1nc(C)c(CN2CCC(C3CCN(CC(C)C)CC3)C2)c1C (configuration not stated)	–	0.851
NC(=O)C1CCN(C(=O)c2csc3nc(-c4ccccc4Cl)cn23)CC1	0.88	–
CCn1cc(C(=O)N2CCCC(CCc3cccc(F)c3)C2)cn1 (configuration not stated)	–	0.485
CCOC(=O)N1CCN(Cc2nc(N3CCCCCC3)c3ccccc3n2)CC1	–	0.904
O=C(NC1CCCN(CCc2ccccc2)C1)c1c(F)ccc(F)c1F (configuration not stated)	–	0.817

Compound	bacterial growth OD600 (polymyxin B 1 µg/mL)	bacterial growth OD600 (polymyxin B 0.75 µg/mL)
CCN(Cc1ccncc1)C(=O)CC1(c2cccc(C(F)(F)F)c2)CC(=O)N(C2CC2)C1=O (configuration not stated)	–	0.988
COc1ccc(CCN2C(=O)O[C@@H]3CN(C4CCOCC4)C[C@@H]32)cc1	1.04	–
CCN1C(=O)CC(CC(=O)N2CCN(c3ccccc3O)CC2)(c2cccc(C(F)(F)F)c2)C1=O (configuration not stated)	–	0.833
CCN(Cc1cccc(C)n1)CC1CCCN(CCc2cccc(OC)c2)C1 (configuration not stated)	0.894	–
COC(=O)[C@@H](NC(=O)c1cc(OC)ccc1OC1CCN(C(C)=O)CC1)C(C)C	1.23	–
Cc1ccc(CNc2nc(CN(C)C(C)c3ccon3)nc3ccccc23)cc1 (configuration not stated)	–	0.806
CCOc1ccccc1CN1CCCC(CNC(=O)c2cccs2)C1 (configuration not stated)	0.886	–
CCOC(=O)C1(Cc2ccc(F)cc2)CCCN(C(=O)C2CC2)C1 (configuration not stated)	1.06	–
O=C1CCC(CCC(=O)N2CCC(C(O)Cc3ccccc3)CC2)(Cc2ccc(Cl)cc2)N1 (configuration not stated)	–	0.824
O=C(NCc1ccncc1)c1cc(CN2CCC(Cc3ccccc3)CC2)on1	0.878	–
Cc1nn(C)c(C)c1CN(C)C(=O)CC(c1ccccc1)c1ccccc1F (configuration not stated)	–	0.496
O=C1N(Cc2cccc(Cl)c2)C[C@@H]2C[C@@H](c3ccccc3)N3CCC[C@@]123	–	0.513
COc1ccccc1CCC(=O)Nc1cnn(CC(=O)NC(C)Cc2ccsc2)c1 (configuration not stated)	–	0.798
CCc1noc(C)c1C(=O)N1CCC(CCC(=O)Nc2cccc(OC)c2)CC1	1.08	–
O=C(NCc1ccc(F)c(F)c1)C1CCC(=O)N(CC2CCCCC2)C1 (configuration not stated)	1.02	–
OC(CCc1ccccc1)c1ccc2c(c1)CN(Cc1ccco1)CCO2 (configuration not stated)	–	0.84

Ordered by heavy-atom count (low to high): 3 of the compounds above.
Compound	bacterial growth OD600 (polymyxin B 1 µg/mL)	bacterial growth OD600 (polymyxin B 0.75 µg/mL)
O=C1N(Cc2cccc(Cl)c2)C[C@@H]2C[C@@H](c3ccccc3)N3CCC[C@@]123	–	0.513
Cc1nn(C)c(C)c1CN(C)C(=O)CC(c1ccccc1)c1ccccc1F (configuration not stated)	–	0.496
CCN1C(=O)CC(CC(=O)N2CCN(c3ccccc3O)CC2)(c2cccc(C(F)(F)F)c2)C1=O (configuration not stated)	–	0.833
